# Reference: article PMC8443744
# Chains of the proteins cited; added tags and fusions are not shown.
# UniProt Q14145: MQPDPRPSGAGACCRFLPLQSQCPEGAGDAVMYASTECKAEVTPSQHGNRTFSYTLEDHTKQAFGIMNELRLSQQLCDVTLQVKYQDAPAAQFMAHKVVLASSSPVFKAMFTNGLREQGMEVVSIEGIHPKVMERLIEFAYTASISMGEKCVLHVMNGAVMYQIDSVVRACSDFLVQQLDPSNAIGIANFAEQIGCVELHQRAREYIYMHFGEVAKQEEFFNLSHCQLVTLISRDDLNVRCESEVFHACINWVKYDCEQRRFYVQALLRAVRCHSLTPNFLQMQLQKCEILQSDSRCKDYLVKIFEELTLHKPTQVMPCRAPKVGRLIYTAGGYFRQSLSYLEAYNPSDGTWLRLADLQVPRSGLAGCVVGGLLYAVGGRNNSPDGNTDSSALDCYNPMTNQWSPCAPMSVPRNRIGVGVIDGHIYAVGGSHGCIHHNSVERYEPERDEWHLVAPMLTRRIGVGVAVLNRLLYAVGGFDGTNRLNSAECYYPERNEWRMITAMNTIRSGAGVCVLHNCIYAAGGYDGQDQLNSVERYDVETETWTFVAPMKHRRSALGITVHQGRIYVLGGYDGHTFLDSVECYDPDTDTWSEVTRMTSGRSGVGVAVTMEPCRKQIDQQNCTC
# UniProt O95602: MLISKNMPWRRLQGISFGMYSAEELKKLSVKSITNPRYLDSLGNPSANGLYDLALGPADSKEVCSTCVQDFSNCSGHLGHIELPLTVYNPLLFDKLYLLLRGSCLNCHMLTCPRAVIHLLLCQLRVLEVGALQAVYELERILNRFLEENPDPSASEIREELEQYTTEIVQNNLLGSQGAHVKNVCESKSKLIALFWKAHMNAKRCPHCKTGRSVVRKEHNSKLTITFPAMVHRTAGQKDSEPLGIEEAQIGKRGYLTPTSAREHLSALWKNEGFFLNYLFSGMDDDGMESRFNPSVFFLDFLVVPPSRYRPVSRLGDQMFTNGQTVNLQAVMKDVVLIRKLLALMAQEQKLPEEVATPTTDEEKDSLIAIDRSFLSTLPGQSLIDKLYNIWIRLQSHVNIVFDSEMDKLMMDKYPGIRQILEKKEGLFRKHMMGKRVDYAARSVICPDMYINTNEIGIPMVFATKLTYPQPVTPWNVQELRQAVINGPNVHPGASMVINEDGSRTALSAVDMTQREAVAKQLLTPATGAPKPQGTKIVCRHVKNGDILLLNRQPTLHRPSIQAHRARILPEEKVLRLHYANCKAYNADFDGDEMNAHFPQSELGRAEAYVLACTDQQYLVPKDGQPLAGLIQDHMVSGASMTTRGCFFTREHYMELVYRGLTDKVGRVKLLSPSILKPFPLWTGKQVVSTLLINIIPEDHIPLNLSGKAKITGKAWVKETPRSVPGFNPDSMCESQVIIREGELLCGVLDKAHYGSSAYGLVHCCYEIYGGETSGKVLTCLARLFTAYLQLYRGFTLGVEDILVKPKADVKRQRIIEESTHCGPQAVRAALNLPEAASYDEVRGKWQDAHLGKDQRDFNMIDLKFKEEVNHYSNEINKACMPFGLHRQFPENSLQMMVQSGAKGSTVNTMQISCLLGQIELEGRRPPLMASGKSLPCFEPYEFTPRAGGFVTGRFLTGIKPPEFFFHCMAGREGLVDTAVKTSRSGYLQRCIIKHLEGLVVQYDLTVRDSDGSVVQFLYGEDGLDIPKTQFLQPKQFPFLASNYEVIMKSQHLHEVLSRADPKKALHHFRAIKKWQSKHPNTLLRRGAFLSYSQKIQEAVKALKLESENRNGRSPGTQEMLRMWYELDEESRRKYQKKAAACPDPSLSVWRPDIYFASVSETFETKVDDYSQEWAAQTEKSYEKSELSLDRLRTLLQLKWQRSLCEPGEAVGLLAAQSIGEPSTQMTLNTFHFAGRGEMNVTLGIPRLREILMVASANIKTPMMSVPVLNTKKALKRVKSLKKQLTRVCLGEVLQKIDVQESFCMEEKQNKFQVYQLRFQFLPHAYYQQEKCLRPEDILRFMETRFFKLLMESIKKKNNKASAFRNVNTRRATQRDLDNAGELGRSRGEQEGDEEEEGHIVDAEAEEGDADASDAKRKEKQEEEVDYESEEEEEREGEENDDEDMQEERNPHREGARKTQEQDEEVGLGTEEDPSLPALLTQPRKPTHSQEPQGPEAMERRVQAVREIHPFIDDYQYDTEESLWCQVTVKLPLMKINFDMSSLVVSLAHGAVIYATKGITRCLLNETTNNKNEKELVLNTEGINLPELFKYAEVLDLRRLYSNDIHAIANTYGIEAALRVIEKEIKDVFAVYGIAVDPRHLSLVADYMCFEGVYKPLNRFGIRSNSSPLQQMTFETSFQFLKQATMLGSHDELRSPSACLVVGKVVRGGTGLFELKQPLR
# Results are given in words; binding and its absence hold for the method and conditions named. Binding seen in cells or lysates may run through a third protein. Some binding calls cover weakened binding; strength is not graded here. For some assays here: Tags and fused reporters may be left off the sequences shown.
# Columns and labels:
# [1] = target: senataxin (SETX), endogenous (human (endogenous in MRC-5)) (UniProt Q7Z333); assay: proximity ligation; Duolink PLA in methanol-fixed MRC-5 cells with antibodies against the two endogenous proteins; cells mock treated (DMSO), 25 uM CPT for 10 min, or 50 uM alpha-amanitin overnight followed by CPT
# eGFP-SETX^1–667 (human) = target: T1, eGFP-SETX^1–667 (human) (UniProt Q7Z333); assay: co-IP; GFP pull-down with GFP-Trap_MA beads from HEK-293 lysates expressing eGFP-SETX 1-667 or empty vector-eGFP; 10 mM Tris-HCl pH 7.5, 150 mM NaCl, 0.5 mM EDTA, 2 h at 4 C; immunoblotting
# T1 sequence: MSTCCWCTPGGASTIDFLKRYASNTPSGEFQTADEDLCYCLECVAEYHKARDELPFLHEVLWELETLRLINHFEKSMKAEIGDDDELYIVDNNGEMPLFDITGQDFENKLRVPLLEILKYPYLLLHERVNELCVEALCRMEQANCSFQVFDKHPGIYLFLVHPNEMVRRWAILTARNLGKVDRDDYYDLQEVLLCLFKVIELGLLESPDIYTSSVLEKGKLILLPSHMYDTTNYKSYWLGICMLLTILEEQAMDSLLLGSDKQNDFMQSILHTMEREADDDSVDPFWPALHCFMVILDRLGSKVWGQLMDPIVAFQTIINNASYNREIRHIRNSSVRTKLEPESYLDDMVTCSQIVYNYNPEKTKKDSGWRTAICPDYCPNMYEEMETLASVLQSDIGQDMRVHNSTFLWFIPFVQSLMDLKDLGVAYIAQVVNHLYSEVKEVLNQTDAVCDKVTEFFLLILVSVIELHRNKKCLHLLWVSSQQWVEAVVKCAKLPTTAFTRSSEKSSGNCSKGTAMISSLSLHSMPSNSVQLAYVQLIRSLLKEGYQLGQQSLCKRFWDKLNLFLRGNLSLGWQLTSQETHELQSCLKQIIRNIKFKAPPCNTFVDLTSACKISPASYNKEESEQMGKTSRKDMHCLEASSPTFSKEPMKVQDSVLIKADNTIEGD
Substance,binding [1],binding (eGFP-SETX^1–667 (human))
"KEAP1, endogenous (from UniProt Q14145 1-624)",binds,–
"largest subunit of RNA polymerase I (RPA-194), endogenous (from UniProt O95602 1-1720)",–,binds
